Laboratory results: PubChem BioAssay AID1508588 (Peter MacCallum Cancer Centre, 2020)
In all, the deposit lists about 18,000 reagents; below is an unselected part. 790 of all reagents (4.4%) were called active. 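Calls rest on a combination of fold-change classes in drug and vehicle arms, not all shown here.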 A number with no mark means an inactive call. A reagent listed more than once was tested more than once; the source does not tell the runs apart.

Purpose: 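Knock-downs boosting vemurafenib effects on melanoma cell growth or lactate release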 (primary screen)
Cell system: human WM266.4 melanoma cells (BRAF V600 mutant)
Reagent: siRNA pool against human genes, 40 nM
Timing: 96 h from transfection to read-out
Treatment: vemurafenib 300 nM (about IC25), added 48 h after transfection, for 48 h; comparison arm got DMSO vehicle only
Detection: 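Ratios to non-targeting siRNA for cell gain, counted as DAPI nuclei after minus before drug and averaged over two replicates, and for absorbance-read medium lactate per cell; both binned into fold-change classes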
Direction: cell gain with vemurafenib: higher = more cell gain than with non-targeting siRNA; lactate per cell with vemurafenib: higher = more lactate made per cell
Hit rule: 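a knock-down counts as enhancing when its fold-change classes with vehicle and with vemurafenib, taken together, show a stronger drug effect on cell gain or lactate per cell; exact class pairs not stated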
Calls: active = enhances vemurafenib effect; inactive = no enhancement seen

EVL (Enah/Vasp-like): cell gain with vemurafenib = 0.43; lactate per cell with vemurafenib = 1.21
PHAX (phosphorylated adaptor for RNA export): cell gain with vemurafenib = 0.39; lactate per cell with vemurafenib = 0.74
LAYN (layilin): cell gain with vemurafenib = 0.85; lactate per cell with vemurafenib = 0.78
TEX261 (testis expressed 261): cell gain with vemurafenib = 0.94; lactate per cell with vemurafenib = 0.88
DLG1 (discs large MAGUK scaffold protein 1): cell gain with vemurafenib = 0.78; lactate per cell with vemurafenib = 0.38
DLG1 (discs large MAGUK scaffold protein 1): cell gain with vemurafenib = 0.53; lactate per cell with vemurafenib = 0.57
RASGEF1C (RasGEF domain family member 1C): cell gain with vemurafenib = 0.29; lactate per cell with vemurafenib = 1.4

The list goes on, starting with the last 2 of the part before.
DLG1 (discs large MAGUK scaffold protein 1): cell gain with vemurafenib = 0.53; lactate per cell with vemurafenib = 0.57
RASGEF1C (RasGEF domain family member 1C): cell gain with vemurafenib = 0.29; lactate per cell with vemurafenib = 1.4
ATP1A3 (ATPase Na+/K+ transporting subunit alpha 3): cell gain with vemurafenib = 0.81; lactate per cell with vemurafenib = 0.98
SEC24D (SEC24 homolog D, COPII component): cell gain with vemurafenib = 0.86; lactate per cell with vemurafenib = 0.8
NUDT17 (nudix hydrolase 17): cell gain with vemurafenib = 0.82; lactate per cell with vemurafenib = 0.73
EXTL3 (exostosin like glycosyltransferase 3): cell gain with vemurafenib = 0.76; lactate per cell with vemurafenib = 0.84
MYO3A (myosin IIIA): cell gain with vemurafenib = 0.39; lactate per cell with vemurafenib = 1.33
RNF146 (ring finger protein 146): cell gain with vemurafenib = 0.61; lactate per cell with vemurafenib = 1.38
SH3BGRL3 (SH3 domain binding glutamate rich protein like 3): cell gain with vemurafenib = 0.32; lactate per cell with vemurafenib = 1.2
FBXO32 (F-box protein 32): cell gain with vemurafenib = 0.73; lactate per cell with vemurafenib = 1.22
MCF2 (MCF.2 cell line derived transforming sequence): cell gain with vemurafenib = 0.63; lactate per cell with vemurafenib = 0.84
